# Source: PubChem BioAssay AID2685 (National Center for Advancing Translational Sciences (NCATS), 2010)
# Some of the results follow. Further columns of the screen follow, without active or inactive calls. Most of these compounds were active or inconclusive in the main read-out, so they are no random draw. Words in brackets tell the shape of the fitted curve; partial curves, single points and poor fits give uncertain potencies.
# Assay: qHTS Assay for Lipid Storage Modulators in Drosophila S3 Cells;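 for cell number change: cells counted by Cell Tracker Red CMTPX staining in the red channel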
# Conditions: BODIPY lipid droplet fluorescence, 18-24 h; for cell number change: measured here: cell count max response, cells fed with added oleic acid
# Method in brief: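 Laser-scanning cytometry quantifies lipid droplet accumulation (500–530 nm total intensity; droplet/cell object ratio) in oleic acid-fed (400 uM added) Drosophila S3 cells treated with a concentration series. 20 uM Triacsin C defined 100% inhibition.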
# [1] = measured here: cell number channel AC50, cells fed with added oleic acid
# [2] = measured here: lipid fluorescence (Fed channel) AC50, cells fed with added oleic acid
Compound,cell number change [%],AC50 [1],AC50 [2]
CC(=O)C(C(C)=O)C(c1ccccc1)c1nc2ccccc2[nH]c1=O (stereo not drawn),92.3,"29.1 µM [rising, partial curve, poor fit]",
CCC(=O)Oc1ccc(C(=O)Nc2ccc3c(c2)OCO3)cc1,-13.6,,"29.1 µM [falling, single point]"
COC(=O)c1ccc(Nc2ncnc3sccc23)cc1,66.7,"29.1 µM [rising, single point]",
O=c1c2ccccc2c(C=NC2CCS(=O)(=O)C2)c(O)n1-c1ccccc1 (stereo not drawn),1.67,,"0.164 µM [rising, full curve, poor fit]"
O=C(c1ccccc1SCc1ccccc1)N1CCOCC1,-39.2,"32.6 µM [falling, single point]","29.1 µM [falling, single point]"
O=C(Nc1sc2c(c1C(=O)O)CCC2)c1ccco1,33.6,"0.651 µM [rising, full curve, poor fit]","0.013 µM [falling, full curve]"
CC1CCCN(c2nc3c(c(=O)[nH]c(=O)n3C)n2CCCc2ccccc2)C1 (stereo not drawn),,,"6.51 µM [falling, single point]"
CCOC(=O)C1=C(C)NC(C)=C(C(=O)OCC)C1C(=O)OCC(=O)N(C)C,5.86,,"0.0058 µM [falling, full curve, poor fit]"
COc1ccc(-c2cn3cccnc3n2)cc1NC(=O)c1cc(OC)c(OC)c(OC)c1,-23.8,,
O=C(NC1CCN(C(=S)Nc2ccc(Cl)cc2)CC1)c1ccco1,3.85,"6.51 µM [rising, single point]",
CN1CCN(C(=O)c2cc3ccccc3cc2O)CC1,2.47,,
CC(=O)c1ccc([N+](=O)[O-])c(CS(=O)(=O)c2ccccc2)c1,-18.1,,
O=C(COC(=O)c1ccc(O)cc1O)NC1CC1,-4.64,,"5.8 µM [rising, single point]"
Cc1ccccc1C(=O)N1CCC(C(=O)Nc2ccc3c(c2)OCO3)CC1,11.1,,"0.0651 µM [rising, full curve, poor fit]"
O=C(c1cc(-c2ccc(Cl)cc2Cl)on1)N1CCCC1,5.22,,"2.91 µM [rising, single point]"
COc1ccccc1CCNC(=O)C1CCC(=O)N(Cc2cccc(F)c2)C1 (stereo not drawn),19.5,"0.00517 µM [rising, full curve, poor fit]",
CCOC(=O)c1ccc(NC(=S)N2CCN(C)CC2)cc1,-34.3,"0.0651 µM [falling, full curve, poor fit]",
O=C(Nc1ccc(Br)cc1F)C1CC(=O)N(C2CCCCC2)C1 (stereo not drawn),7.46,,
CC(=O)N1CCN(c2ccccc2NC(=O)COc2cc(C)ccc2C(C)C)CC1,129,"2.06 µM [rising, full curve]",
CCOC(=O)C1=C(N)Oc2c(oc(CO)cc2=O)C1c1ccccc1 (stereo not drawn),,,"0.0291 µM [rising, full curve]"
CCC(=O)N1CCCc2cc(S(=O)(=O)NCc3cccs3)ccc21,0.271,,"11.6 µM [rising, partial curve]"

# Some of the entries above in another layout.
Compound | cell number change [%] | AC50 [1] | AC50 [2]
CCOC(=O)c1ccc(NC(=S)N2CCN(C)CC2)cc1 | -34.3 | 0.0651 µM [falling, full curve, poor fit] | 
O=C(Nc1ccc(Br)cc1F)C1CC(=O)N(C2CCCCC2)C1 (stereo not drawn) | 7.46 |  | 
CC(=O)N1CCN(c2ccccc2NC(=O)COc2cc(C)ccc2C(C)C)CC1 | 129 | 2.06 µM [rising, full curve] | 
CCOC(=O)C1=C(N)Oc2c(oc(CO)cc2=O)C1c1ccccc1 (stereo not drawn) |  |  | 0.0291 µM [rising, full curve]

# (cont.)

Compound,cell number change [%],AC50 [1],AC50 [2]
COc1cccc(OC)c1NC(=O)C1CCCN1C(=O)NCc1ccccc1 (stereo not drawn),,,"16.4 µM [falling, partial curve]"
O=C(NC1CC1)c1ccc(CS(=O)c2ccc(Br)cc2)o1 (stereo not drawn),1.65,,
O=C(CN1CCN(c2ccccc2O)CC1)Nc1cc(S(=O)(=O)N2CCCC2)ccc1Cl,,,"4.61 µM [falling, full curve, poor fit]"
O=C(CN1CCN(Cc2ccccc2)CC1)Nc1ccc(N2CCOCC2)cc1,,"1.46 µM [falling, full curve]","1.46 µM [falling, full curve]"
CCOC(=O)c1ccc(NC(=O)CCc2ccc(CC)o2)cc1,0.107,,"3.26 µM [falling, single point]"
Cc1sc2ncnc(SCC(=O)c3ccc4c(c3)OCCO4)c2c1-c1ccccc1,9.21,,"10.3 µM [rising, partial curve, poor fit]"
Cc1cc(C)cc(NS(=O)(=O)c2ccc(NC(=S)Nc3ccccc3)cc2)c1,-66.7,"1.84 µM [falling, partial curve]",
O=C(Nc1cccc(F)c1)NC1CCCc2ccccc21 (stereo not drawn),35,"17.8 µM [rising, partial curve, poor fit]",
O=C(/C=C/c1cccnc1)c1ccc(O)cc1,-58.1,"3.26 µM [falling, partial curve, poor fit]","5.17 µM [falling, partial curve, poor fit]"
CN(C)CCNC(=O)c1onc(CSc2nc3ccccc3[nH]2)c1C(=O)NCCN(C)C,6.29,,
Cc1cc(OCC(=O)N2CCC[C@@H]2C(=O)O)c2c(C)c(C)c(=O)oc2c1,14.6,,
N#Cc1ccc(C(=O)NC2CCCCCCC2)cc1,-1.68,,
Cc1c(C(=O)Nc2ccccc2N2CCOCC2)sc2nc3n(c(=O)c12)CCC3,0.593,,
COCCN(Cc1ccccc1)C(=O)c1ccc(C(=O)c2ccccc2)cc1,-0.912,,"6.51 µM [falling, single point]"
CCCC(C(=O)Nc1ccc2c(C)cc(=O)oc2c1)c1ccccc1 (stereo not drawn),27,"1.3 µM [rising, full curve, poor fit]",
CC(=O)N1c2ccc(S(=O)(=O)NCCC(=O)Nc3ccc(C)c(Cl)c3)cc2CC1C (stereo not drawn),-22.5,"6.51 µM [falling, partial curve]",
CCCCOc1ccc(CSc2ncn[nH]2)cc1,-18.8,,"8.2 µM [rising, single point]"
CCOC(=O)c1cc(-c2ccccc2C)n(Cc2cc(C)no2)n1,0.453,"1.16 µM [falling, single point]","1.16 µM [falling, single point]"
Cc1ccc(C(=O)O)cc1S(=O)(=O)N1CCOCC1,-34.4,"0.651 µM [falling, full curve, poor fit]","29.1 µM [falling, single point]"
C/C(=N\N=c1/scc(C)n1Cc1ccco1)c1cccc([N+](=O)[O-])c1,-21.8,,
